Our source for the binding values is PMC12864446.

The target of experiment [1] is T1, nLUC-ZEP (Arabidopsis thaliana) (UniProt Q9FGC7).
T1 sequence: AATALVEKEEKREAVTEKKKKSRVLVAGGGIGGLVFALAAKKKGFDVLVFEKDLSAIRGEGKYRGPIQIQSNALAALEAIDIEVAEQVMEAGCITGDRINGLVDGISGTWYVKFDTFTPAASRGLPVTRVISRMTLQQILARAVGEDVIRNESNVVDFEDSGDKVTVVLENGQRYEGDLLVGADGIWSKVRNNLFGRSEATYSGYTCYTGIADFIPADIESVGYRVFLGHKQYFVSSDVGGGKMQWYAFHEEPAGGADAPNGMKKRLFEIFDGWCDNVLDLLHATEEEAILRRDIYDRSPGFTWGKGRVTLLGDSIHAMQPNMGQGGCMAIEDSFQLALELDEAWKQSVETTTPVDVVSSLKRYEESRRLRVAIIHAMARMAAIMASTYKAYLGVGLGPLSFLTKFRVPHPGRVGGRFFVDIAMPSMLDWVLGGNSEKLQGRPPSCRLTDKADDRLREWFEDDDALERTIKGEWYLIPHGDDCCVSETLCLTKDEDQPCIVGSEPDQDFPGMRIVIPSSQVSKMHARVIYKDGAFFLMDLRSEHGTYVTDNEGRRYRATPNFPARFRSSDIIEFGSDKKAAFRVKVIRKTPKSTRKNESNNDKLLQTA
In words: split reporter; split-luciferase complementation in intact N. benthamiana leaves; high light (600 µmol m-2 s-1) for 3 h at 2 dpi, 1 mM d-luciferin, CCD imaging; empty nLUC and cLUC as negative controls.

Experiment [2] has as its target T2, cYFP-ZEP (Arabidopsis thaliana) (UniProt Q9FGC7).
T2 sequence: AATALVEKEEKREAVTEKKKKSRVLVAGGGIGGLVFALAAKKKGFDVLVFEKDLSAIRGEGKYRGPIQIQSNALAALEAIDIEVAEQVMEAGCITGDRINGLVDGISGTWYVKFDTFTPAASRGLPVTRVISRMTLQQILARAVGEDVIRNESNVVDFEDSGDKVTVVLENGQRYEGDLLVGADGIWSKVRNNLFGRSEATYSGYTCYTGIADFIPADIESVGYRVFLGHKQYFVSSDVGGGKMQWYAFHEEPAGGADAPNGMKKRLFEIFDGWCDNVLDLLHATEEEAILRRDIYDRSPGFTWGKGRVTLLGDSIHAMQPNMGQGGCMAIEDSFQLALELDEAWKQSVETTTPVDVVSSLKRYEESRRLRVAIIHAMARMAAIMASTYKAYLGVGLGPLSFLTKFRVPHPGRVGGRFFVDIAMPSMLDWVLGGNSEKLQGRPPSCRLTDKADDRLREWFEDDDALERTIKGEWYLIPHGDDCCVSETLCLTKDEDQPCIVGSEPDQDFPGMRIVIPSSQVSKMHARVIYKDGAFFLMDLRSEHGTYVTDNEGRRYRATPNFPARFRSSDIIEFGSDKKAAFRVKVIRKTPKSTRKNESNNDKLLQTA
In words: split reporter; BiFC with split YFP in mesophyll cells of tobacco leaves, confocal microscopy; empty vector combinations as negative controls.

Results are given in words; binding and its absence hold for the method and conditions named. In cells and extracts the contact can be indirect. Some results given as binding are weak or reduced against the parent protein; the word gives no strength. Where a sequence is shown, tags or fusion partners need not be part of it.

B1: cLUC-PsbS (protein, UniProt Q9XF91 60-265)
chain: AAPKKVEKPKSKVEDGIFGTSGGIGFTKANELFVGRVAMIGFAASLLGEALTGKGILAQLNLETGIPIYEAEPLLLFFILFTLLGAIGALGDRGKFVDDPPTGLEKAVIPPGKNVRSALGLKEQGPLFGFTKANELFVGRLAQLGIAFSLIGEIITGKGALAQLNIETGIPIQDIEPLVLLNVAFFFFAAINPGNGKFITDDGEES
B1: the binding entry in experiment [1] was “binds”.

B2: PsbS-nYFP (protein, UniProt Q9XF91 60-265)
chain: AAPKKVEKPKSKVEDGIFGTSGGIGFTKANELFVGRVAMIGFAASLLGEALTGKGILAQLNLETGIPIYEAEPLLLFFILFTLLGAIGALGDRGKFVDDPPTGLEKAVIPPGKNVRSALGLKEQGPLFGFTKANELFVGRLAQLGIAFSLIGEIITGKGALAQLNIETGIPIQDIEPLVLLNVAFFFFAAINPGNGKFITDDGEES
B2: in experiment [2], the binding entry was “binds”.
